Source: the supplement of paper PMC12819154, “High-throughput peptide-centric local stability assay extends protein–ligand identification to membrane proteins, tissues and bacteria” (Nature Structural & Molecular Biology, 2025)
The other results are listed elsewhere or left out. Most entries show no effect beyond the scatter of the controls.

Protein sequences, listed by entry. Tags and fused reporters are not part of them. Lines headed by an entry give the natural chain unless they say otherwise; changes in a name come on top.
UniProt Q9H3R0: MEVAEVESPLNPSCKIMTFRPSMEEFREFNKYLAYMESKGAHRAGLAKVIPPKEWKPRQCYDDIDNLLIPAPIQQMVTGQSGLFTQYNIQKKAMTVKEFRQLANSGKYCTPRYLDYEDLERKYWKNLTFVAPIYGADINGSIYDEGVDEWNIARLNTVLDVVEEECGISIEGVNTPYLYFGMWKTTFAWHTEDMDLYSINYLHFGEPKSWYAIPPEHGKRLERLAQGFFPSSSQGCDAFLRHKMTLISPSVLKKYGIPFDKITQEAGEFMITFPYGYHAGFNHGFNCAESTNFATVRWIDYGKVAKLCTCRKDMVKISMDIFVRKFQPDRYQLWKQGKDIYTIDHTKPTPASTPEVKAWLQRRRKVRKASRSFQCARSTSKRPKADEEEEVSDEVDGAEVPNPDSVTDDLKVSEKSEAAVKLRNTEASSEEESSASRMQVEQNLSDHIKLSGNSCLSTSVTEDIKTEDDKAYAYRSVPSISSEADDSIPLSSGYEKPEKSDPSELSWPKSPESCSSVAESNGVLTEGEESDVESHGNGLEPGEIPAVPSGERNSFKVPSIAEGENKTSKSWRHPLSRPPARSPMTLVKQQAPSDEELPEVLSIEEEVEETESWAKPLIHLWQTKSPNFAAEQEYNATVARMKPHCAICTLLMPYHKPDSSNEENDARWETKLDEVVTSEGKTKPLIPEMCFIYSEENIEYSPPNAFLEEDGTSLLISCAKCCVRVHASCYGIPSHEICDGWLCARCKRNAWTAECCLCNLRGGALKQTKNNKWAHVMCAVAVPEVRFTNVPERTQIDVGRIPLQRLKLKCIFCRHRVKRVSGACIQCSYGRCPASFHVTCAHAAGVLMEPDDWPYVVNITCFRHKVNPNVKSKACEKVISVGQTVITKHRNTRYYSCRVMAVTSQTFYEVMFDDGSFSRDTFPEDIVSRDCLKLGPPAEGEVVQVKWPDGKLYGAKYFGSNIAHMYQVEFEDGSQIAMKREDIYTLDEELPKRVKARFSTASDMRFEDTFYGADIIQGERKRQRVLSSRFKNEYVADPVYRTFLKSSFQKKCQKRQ
UniProt Q9H175: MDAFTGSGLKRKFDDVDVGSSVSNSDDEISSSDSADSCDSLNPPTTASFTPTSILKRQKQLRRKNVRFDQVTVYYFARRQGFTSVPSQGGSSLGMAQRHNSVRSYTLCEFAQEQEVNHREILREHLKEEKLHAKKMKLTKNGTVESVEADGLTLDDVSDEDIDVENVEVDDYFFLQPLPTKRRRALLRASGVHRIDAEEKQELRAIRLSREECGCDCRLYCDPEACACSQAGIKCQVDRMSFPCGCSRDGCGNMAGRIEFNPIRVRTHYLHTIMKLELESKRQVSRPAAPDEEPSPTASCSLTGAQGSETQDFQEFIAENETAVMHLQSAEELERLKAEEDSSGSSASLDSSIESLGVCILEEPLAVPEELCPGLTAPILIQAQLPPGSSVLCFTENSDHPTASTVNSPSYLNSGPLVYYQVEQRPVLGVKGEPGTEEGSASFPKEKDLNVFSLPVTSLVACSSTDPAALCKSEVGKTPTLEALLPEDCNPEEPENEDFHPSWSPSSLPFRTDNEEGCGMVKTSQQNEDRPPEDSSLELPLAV
UniProt Q9BYJ9: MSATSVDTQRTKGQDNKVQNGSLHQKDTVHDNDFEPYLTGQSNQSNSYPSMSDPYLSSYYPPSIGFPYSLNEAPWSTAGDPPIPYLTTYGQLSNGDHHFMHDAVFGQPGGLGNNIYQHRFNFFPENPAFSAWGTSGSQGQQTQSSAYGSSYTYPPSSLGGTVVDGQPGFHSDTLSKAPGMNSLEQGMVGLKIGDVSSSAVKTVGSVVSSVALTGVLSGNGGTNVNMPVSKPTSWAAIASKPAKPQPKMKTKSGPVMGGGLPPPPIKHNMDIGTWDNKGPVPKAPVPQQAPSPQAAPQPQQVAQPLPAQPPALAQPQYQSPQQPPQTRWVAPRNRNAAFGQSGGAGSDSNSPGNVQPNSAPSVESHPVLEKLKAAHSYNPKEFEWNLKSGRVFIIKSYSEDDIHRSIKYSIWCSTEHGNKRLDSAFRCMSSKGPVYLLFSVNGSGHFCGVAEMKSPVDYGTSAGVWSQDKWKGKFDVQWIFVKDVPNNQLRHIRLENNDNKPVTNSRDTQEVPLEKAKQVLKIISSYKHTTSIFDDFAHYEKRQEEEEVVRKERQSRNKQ
UniProt Q9H446: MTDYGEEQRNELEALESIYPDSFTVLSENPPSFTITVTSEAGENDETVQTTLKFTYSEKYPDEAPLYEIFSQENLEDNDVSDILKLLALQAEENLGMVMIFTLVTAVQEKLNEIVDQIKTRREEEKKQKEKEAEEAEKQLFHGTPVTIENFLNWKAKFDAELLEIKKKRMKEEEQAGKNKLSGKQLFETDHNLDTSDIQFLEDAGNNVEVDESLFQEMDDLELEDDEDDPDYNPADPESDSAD
UniProt Q9GZM8: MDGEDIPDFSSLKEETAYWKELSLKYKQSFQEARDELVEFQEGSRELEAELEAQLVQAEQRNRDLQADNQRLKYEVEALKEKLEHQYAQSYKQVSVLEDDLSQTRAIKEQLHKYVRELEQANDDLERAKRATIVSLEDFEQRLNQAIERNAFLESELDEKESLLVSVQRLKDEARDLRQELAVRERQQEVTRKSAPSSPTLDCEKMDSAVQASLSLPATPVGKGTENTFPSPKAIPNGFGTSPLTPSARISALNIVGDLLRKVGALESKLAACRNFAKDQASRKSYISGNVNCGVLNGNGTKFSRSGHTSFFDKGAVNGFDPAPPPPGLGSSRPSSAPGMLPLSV
UniProt Q9H3N1: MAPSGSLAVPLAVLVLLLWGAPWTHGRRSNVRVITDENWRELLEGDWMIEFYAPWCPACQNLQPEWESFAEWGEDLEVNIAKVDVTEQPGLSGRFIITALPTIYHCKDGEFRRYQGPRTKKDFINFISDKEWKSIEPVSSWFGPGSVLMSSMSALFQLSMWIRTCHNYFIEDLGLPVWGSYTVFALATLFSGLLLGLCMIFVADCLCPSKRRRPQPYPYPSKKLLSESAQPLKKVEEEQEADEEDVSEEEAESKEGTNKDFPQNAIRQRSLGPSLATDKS
UniProt Q9H079: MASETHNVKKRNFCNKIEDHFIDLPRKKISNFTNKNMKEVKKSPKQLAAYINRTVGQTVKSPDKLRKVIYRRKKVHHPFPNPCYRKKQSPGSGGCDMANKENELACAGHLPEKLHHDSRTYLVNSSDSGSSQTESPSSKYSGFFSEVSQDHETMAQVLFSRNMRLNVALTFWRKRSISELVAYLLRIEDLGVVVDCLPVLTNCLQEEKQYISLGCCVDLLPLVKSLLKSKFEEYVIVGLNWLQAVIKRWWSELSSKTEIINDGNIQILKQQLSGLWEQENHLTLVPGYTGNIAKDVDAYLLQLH
UniProt Q9H115: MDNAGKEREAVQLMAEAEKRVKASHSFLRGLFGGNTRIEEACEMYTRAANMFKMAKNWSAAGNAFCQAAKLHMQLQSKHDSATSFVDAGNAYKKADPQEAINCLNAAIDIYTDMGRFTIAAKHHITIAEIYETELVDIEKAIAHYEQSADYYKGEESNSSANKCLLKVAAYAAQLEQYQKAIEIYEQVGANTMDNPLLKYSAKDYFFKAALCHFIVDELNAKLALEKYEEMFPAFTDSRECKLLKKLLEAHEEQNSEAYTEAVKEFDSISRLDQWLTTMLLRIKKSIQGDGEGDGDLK

Compound: CN[C@@H]1C[C@H]2O[C@@](C)([C@@H]1OC)n1c3ccccc3c3c4c(c5c6ccccc6n2c5c31)C(=O)NC4 [staurosporine]
Experiment: log2 fold change of tryptic peptide abundance, ligand vs vehicle (limited proteolysis) (log2 ratio); higher = more trypsin-susceptible (destabilized)
Conditions: ligand concentration: 20 uM; sample: K562 cleared lysate; digestion: 4 min, 22 C (HT-PELSA RT4min, Orbitrap Astral)

Row | Target | log2 fold change
1 | KDM4C (peptide sequence: VISVGQTVITK, peptide start residue: 878) (UniProt Q9H3R0) | -0.688
2 | CSRNP2 (peptide sequence: TDNEEGCGMVK, peptide start residue: 512) (UniProt Q9H175) | 0.45
3 | YTHDF1 (peptide sequence: PTSWAAIASKPAKPQPK, peptide start residue: 231) (UniProt Q9BYJ9) | -1.14
4 | RWDD1 (peptide sequence: AKFDAELLEIK, peptide start residue: 156) (UniProt Q9H446) | -0.118
5 | MRPL46 (peptide sequence: FLGNAPCGHYTFKFPQAMR, peptide start residue: 204) (UniProt Q9H2W6) | -0.256
6 | NDEL1 (peptide sequence: ISALNIVGDLLRK, peptide start residue: 251) (UniProt Q9GZM8) | 0.308
7 | UniProt Q9H3N1 (peptide sequence: LLSESAQPLK, peptide start residue: 224) | -0.0582
8 | KATNBL1 (peptide sequence: QLAAYINR, peptide start residue: 46) (UniProt Q9H079) | -0.181
9 | UniProt Q9H115 (peptide sequence: SIQGDGEGDGDLK, peptide start residue: 286) | -0.407
